Results from the supplement of paper PMC4604168 (melanoma cell lines).
The other results are listed elsewhere or left out. Many values rest on one well or one pass, so single values are uncertain.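 Cells were imaged in 1,536-well plates, and nuclei stained with an antibody against cleaved PARP were counted against all DNA-stained nuclei to give the apoptosis fraction. Screening doses were chosen to leave most cells alive, and resting and induced cleaved-PARP levels differ strongly between cell lines.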

Tests used:
Test in all cases: cleaved PARP positive nuclei fraction relative to DMSO control; melanoma cells; higher = more apoptosis
Conditions in all cases: library dose: low library concentration; 72 h
501Mel = test system: 501Mel
A101D = test system: A101D
A2058 = test system: A2058
C32 = test system: C32
CBRC008 = test system: CBRC008 (line from a melanoma biopsy)
CBRC014 = test system: CBRC014 (line from a melanoma biopsy)
CBRC016 = test system: CBRC016 (line from a melanoma biopsy)
CBRC017 = test system: CBRC017 (line from a melanoma biopsy)
COLO792 = test system: COLO792
COLO800 = test system: COLO800
COLO829 = test system: COLO829
G361 = test system: G361
IPC-298 = test system: IPC-298
IST-MEL1 = test system: IST-MEL1
LB2518-MEL = test system: LB2518-MEL
LOXIMVI = test system: LOXIMVI

Compound | cleaved PARP positive nuclei fraction (501Mel) [%] | cleaved PARP positive nuclei fraction (A101D) [%] | cleaved PARP positive nuclei fraction (A2058) [%] | cleaved PARP positive nuclei fraction (C32) [%] | cleaved PARP positive nuclei fraction (CBRC008) [%] | cleaved PARP positive nuclei fraction (CBRC014) [%] | cleaved PARP positive nuclei fraction (CBRC016) [%] | cleaved PARP positive nuclei fraction (CBRC017) [%] | cleaved PARP positive nuclei fraction (COLO792) [%] | cleaved PARP positive nuclei fraction (COLO800) [%] | cleaved PARP positive nuclei fraction (COLO829) [%] | cleaved PARP positive nuclei fraction (G361) [%] | cleaved PARP positive nuclei fraction (IPC-298) [%] | cleaved PARP positive nuclei fraction (IST-MEL1) [%] | cleaved PARP positive nuclei fraction (LB2518-MEL) [%] | cleaved PARP positive nuclei fraction (LOXIMVI) [%]
C[C@@H](Oc1cc(-c2cnn(C3CCNCC3)c2)cnc1N)c1c(Cl)ccc(F)c1Cl [Crizotinib] + Cc1cc([N+](=O)[O-])ccc1NS(=O)(=O)c1cc(Cl)ccc1Cl [FH535] (first compound 0.2 µM, partner dose 1 µM) | 151 | 36.3 | 87.4 | 79.3 | 756 | 163 | 1320 | 662 | 99.3 | 54.9 | 123 | 157 | 100 | 397 | 68.1 | 58.9
CCCS(=O)(=O)Nc1ccc(F)c(C(=O)c2c[nH]c3ncc(Cl)cc23)c1F + COC(=O)c1sccc1S(=O)(=O)Nc1ccc(Nc2ccccc2)cc1OC [GSK0660] (first compound 0.08 µM, partner dose 1 µM) | 60.7 | 81.5 | 260 | 91.2 | 86.9 | 430 | 223 | 106 | 52.2 | 80.6 | 85.1 | 193 | 168 | 76.9 | 39.6 | 90.3
CO[C@H]1C[C@@H]2CC[C@@H](C)[C@@](O)(O2)C(=O)C(=O)N2CCCC[C@H]2C(=O)O[C@H]([C@H](C)C[C@@H]2CC[C@@H](OCCO)[C@H](OC)C2)CC(=O)[C@H](C)/C=C(\C)[C@@H](O)[C@@H](OC)C(=O)[C@H](C)C[C@H](C)/C=C/C=C/C=C/1C [everolimus] + COc1cc2ncnc(Nc3ccc(Oc4ccccc4)cc3)c2cc1OC [SrcI1] (first compound 0.02 µM, partner dose 2 µM) | 80.4 | 63.9 | 132 | 172 | 169 | 101 | 14.7 | 90.1 | 186 | 150 | 75.8 | 64.5 | 123 | 117 | 108 | 79.2
CC(C)C[C@H](NC(=O)[C@H](Cc1ccccc1)NC(=O)c1cnccn1)B(O)O [Bortezomib] + O=c1cc(-c2cccc3c2Sc2ccccc2S3)oc(N2CCOCC2)c1 [KU55933] (first compound 0.001 µM, partner dose 1 µM) | 250 | 323 | 198 | 133 | 175 | 266 | 543 | 113 | 37.9 | 55.1 | 77.2 | 1580 | 158 | 36.1 | 144 | 60.2
Nc1nc(F)nc2c1ncn2[C@@H]1O[C@H](CO)[C@@H](O)[C@@H]1O [fludarabine] + O=C1NC(=O)/C(=C/c2ccc(-c3ccc(F)cc3O)o2)S1 [AS252424] (first compound 0.2 µM, partner dose 1 µM) | 1770 | 27.7 | 171 | 163 | 137 | 84 | 71.1 | 89.9 | 207 | 88.7 | 146 | 107 | 94 | 45.7 | 17.4 | 51.5
C[C@@H](Oc1cc(-c2cnn(C3CCNCC3)c2)cnc1N)c1c(Cl)ccc(F)c1Cl [Crizotinib] + COc1cc(N2CCC(N3CCN(C)CC3)CC2)ccc1Nc1ncc(Cl)c(Nc2ccccc2S(=O)(=O)C(C)C)n1 [NVP-TAE684] (first compound 0.2 µM, partner dose 0.08 µM) | 136 | 26.9 | 193 | 130 | 66.3 | 45.6 | 32.8 | 57.6 | 104 | 136 | 332 | 71.1 | 28.3 | 150 | 53.1 | 80.4
CNC(=O)c1cc(Oc2ccc(NC(=O)Nc3ccc(Cl)c(C(F)(F)F)c3)cc2)ccn1 [sorafenib] + COc1cc(N2CCC(N3CCN(C)CC3)CC2)ccc1Nc1ncc(Cl)c(Nc2ccccc2S(=O)(=O)C(C)C)n1 [NVP-TAE684] (first compound 0.4 µM, partner dose 0.08 µM) | 151 | 16.5 | 70.2 | 38.8 | 45.8 | 76.2 | 92 | 120 | 71.9 | 110 | 99.5 | 112 | 66.9 | 35.7 | 66.4 | 52.5
CNC(=O)c1cc(Oc2ccc(NC(=O)Nc3ccc(Cl)c(C(F)(F)F)c3)cc2)ccn1 [sorafenib] + O=c1cc(-c2cccc3c2Sc2ccccc2S3)oc(N2CCOCC2)c1 [KU55933] (first compound 0.4 µM, partner dose 1 µM) | 89.4 | 46.3 | 23.6 | 159 | 345 | 98.1 | 41.8 | 103 | 136 | 38.7 | 29.3 | 117 | 196 | 67.3 | 173 | 173
O=C(O)[C@@H]1[O][Sb](=[O])([O][Sb]2(=[O])[O][C@H]([C@H](O)CO)[C@H](O)[C@H](C(=O)O)[O]2)[O][C@H]([C@H](O)CO)[C@@H]1O (stereo partly drawn) [stibogluconate] + COc1ccc2c(c1)CCC1C2CCC2(C)C(NCCCCCCN3C(=O)C=CC3=O)CCC12 [U73122] (first compound 2 µM, partner dose 0.4 µM) | 72 | 19.2 | 113 | 93.6 | 50.9 | 102 | 60.4 | 176 | 93.6 | 23.8 | 44.8 | 158 | 48.7 | 96.5 | 72.1 | 77.4
CS(=O)(=O)CCNCc1ccc(-c2ccc3ncnc(Nc4ccc(OCc5cccc(F)c5)c(Cl)c4)c3c2)o1 [lapatinib] + COc1ccc2c(c1)CCC1C2CCC2(C)C(NCCCCCCN3C(=O)C=CC3=O)CCC12 [U73122] (first compound 0.8 µM, partner dose 0.4 µM) | 248 | 21.6 | 68.1 | 73.4 | 257 | 152 | 178 | 180 | 112 | 133 | 131 | 69.9 | 144 | 160 | 47 | 127
C=C(c1ccc(C(=O)O)cc1)c1cc2c(cc1C)C(C)(C)CCC2(C)C [Bexarotene] + COc1ccc(-c2ccc3c(N4CCOCC4)nc(N4C[C@@H](C)O[C@@H](C)C4)nc3n2)cc1CO [KU0063794] (first compound 2 µM, partner dose 0.02 µM) | 56 | 62.5 | 67.6 | 78.5 | 222 | 126 | 147 | 128 | 107 | 25.1 | 149 | 270 | 105 | 89.6 | 139 | 61.8
C[C@@H](Oc1cc(-c2cnn(C3CCNCC3)c2)cnc1N)c1c(Cl)ccc(F)c1Cl [Crizotinib] + N#Cc1c(O)c2c(-c3ccc(-c4ccccc4O)cc3)csc2[nH]c1=O [A769662] (first compound 0.2 µM, partner dose 2 µM) | 95.6 | 25.9 | 80.6 | 32.7 | 94.2 | 77.6 | 49.4 | 298 | 84.1 | 119 | 91.5 | 94 | 95.3 | 37.8 | 70.2 | 49.3
C=C(c1ccc(C(=O)O)cc1)c1cc2c(cc1C)C(C)(C)CCC2(C)C [Bexarotene] + c1cc(-c2cnn3cc(-c4ccc(OCCN5CCCCC5)cc4)cnc23)ccn1 [Dorsomorphin] (first compound 2 µM, partner dose 0.4 µM) | 145 | 43.3 | 91.9 | 50.3 | 67.7 | 139 | 102 | 119 | 67.4 | 157 | 69.3 | 193 | 32.3 | 134 | 122 | 14.6
Cn1c(=O)n(-c2ccc(C(C)(C)C#N)cc2)c2c3cc(-c4cnc5ccccc5c4)ccc3ncc21 + CC(C)CCN1c2nc(Nc3cc(F)c(O)c(F)c3)ncc2N(C)C(=O)C1C [BID1870] (first compound 0.004 µM, partner dose 0.2 µM) | 56.2 | 75 | 49.4 | 72.6 | 33.7 | 96 | 7070 | 77.9 | 231 | 46.1 | 39.3 | 80.5 | 48.4 | 112 | 127 | 91.3
CC(C)C[C@H](NC(=O)[C@H](Cc1ccccc1)NC(=O)c1cnccn1)B(O)O [Bortezomib] + COc1ccc(COc2ccc(Cc3cnc(N)nc3N)cc2OC)cc1 [GW2580] (first compound 0.001 µM, partner dose 1 µM) | 66.8 | 44 | 79.1 | 349 | 871 | 166 | 137 | 102 | 145 | 139 | 145 | 255 | 67.7 | 165 | 70.7 | 52.2
O=C(O)[C@@H]1[O][Sb](=[O])([O][Sb]2(=[O])[O][C@H]([C@H](O)CO)[C@H](O)[C@H](C(=O)O)[O]2)[O][C@H]([C@H](O)CO)[C@@H]1O (stereo partly drawn) [stibogluconate] + CCN(CC)CCCCNc1ncc2cc(-c3cc(OC)cc(OC)c3)c(NC(=O)NC(C)(C)C)nc2n1 [PD173074] (first compound 2 µM, partner dose 0.1 µM) | 64.3 | 19.1 | 369 | 101 | 79.7 | 85.8 | 39.8 | 73 | 47.6 | 87.9 | 79.6 | 141 | 30.8 | 111 | 146 | 121
Nc1ncn([C@H]2C[C@H](O)[C@@H](CO)O2)c(=O)n1 [decitabine] + COc1ccc(-c2ccc3c(N4CCOCC4)nc(N4C[C@@H](C)O[C@@H](C)C4)nc3n2)cc1CO [KU0063794] (first compound 0.1 µM, partner dose 0.02 µM) | 83.5 | 29 | 392 | 39.4 | 139 | 116 | 129 | 92.6 | 125 | 116 | 174 | 210 | 106 | 315 | 44.8 | 241
O=C(O)[C@@H]1[O][Sb](=[O])([O][Sb]2(=[O])[O][C@H]([C@H](O)CO)[C@H](O)[C@H](C(=O)O)[O]2)[O][C@H]([C@H](O)CO)[C@@H]1O (stereo partly drawn) [stibogluconate] + CC(C)CCN1c2nc(Nc3cc(F)c(O)c(F)c3)ncc2N(C)C(=O)C1C [BID1870] (first compound 2 µM, partner dose 0.2 µM) | 76.2 | 46 | 139 | 178 | 137 | 100 | 108 | 192 | 93.7 | 114 | 83.5 | 50 | 238 | 36.4 | 157 | 105

Some of the entries above in another layout.
Compound	cleaved PARP positive nuclei fraction (501Mel) [%]	cleaved PARP positive nuclei fraction (A101D) [%]	cleaved PARP positive nuclei fraction (A2058) [%]	cleaved PARP positive nuclei fraction (C32) [%]	cleaved PARP positive nuclei fraction (CBRC008) [%]	cleaved PARP positive nuclei fraction (CBRC014) [%]	cleaved PARP positive nuclei fraction (CBRC016) [%]	cleaved PARP positive nuclei fraction (CBRC017) [%]	cleaved PARP positive nuclei fraction (COLO792) [%]	cleaved PARP positive nuclei fraction (COLO800) [%]	cleaved PARP positive nuclei fraction (COLO829) [%]	cleaved PARP positive nuclei fraction (G361) [%]	cleaved PARP positive nuclei fraction (IPC-298) [%]	cleaved PARP positive nuclei fraction (IST-MEL1) [%]	cleaved PARP positive nuclei fraction (LB2518-MEL) [%]	cleaved PARP positive nuclei fraction (LOXIMVI) [%]
Nc1nc(F)nc2c1ncn2[C@@H]1O[C@H](CO)[C@@H](O)[C@@H]1O [fludarabine] + O=C1NC(=O)/C(=C/c2ccc(-c3ccc(F)cc3O)o2)S1 [AS252424] (first compound 0.2 µM, partner dose 1 µM)	1770	27.7	171	163	137	84	71.1	89.9	207	88.7	146	107	94	45.7	17.4	51.5
Cn1c(=O)n(-c2ccc(C(C)(C)C#N)cc2)c2c3cc(-c4cnc5ccccc5c4)ccc3ncc21 + CC(C)CCN1c2nc(Nc3cc(F)c(O)c(F)c3)ncc2N(C)C(=O)C1C [BID1870] (first compound 0.004 µM, partner dose 0.2 µM)	56.2	75	49.4	72.6	33.7	96	7070	77.9	231	46.1	39.3	80.5	48.4	112	127	91.3
